# Where “and” joins values, the source holds several entries; their conditions need not be identical. Equal values may be shown once. Among all 580,000 compounds or so, about 6,100 (1.1%) were called active. Inconclusive results, whose numbers are uncertain, are shown with a selection of clear calls. Calls come from the whole dose curve; as a rule, active = well fitted inhibition curve with a large enough effect; inconclusive = small, poorly fitted or top-dose-only effect, or another doubt; inactive = no such curve, though single readings can be large or run the other way. Where the call is inconclusive, the potency comes from a doubtful curve fit.
# The chains behind the UniProt entries cited, without tags or fusion partners. Where a name states a change or a piece, a line headed by the entry shows the natural chain unless it says otherwise.
# UniProt P18054: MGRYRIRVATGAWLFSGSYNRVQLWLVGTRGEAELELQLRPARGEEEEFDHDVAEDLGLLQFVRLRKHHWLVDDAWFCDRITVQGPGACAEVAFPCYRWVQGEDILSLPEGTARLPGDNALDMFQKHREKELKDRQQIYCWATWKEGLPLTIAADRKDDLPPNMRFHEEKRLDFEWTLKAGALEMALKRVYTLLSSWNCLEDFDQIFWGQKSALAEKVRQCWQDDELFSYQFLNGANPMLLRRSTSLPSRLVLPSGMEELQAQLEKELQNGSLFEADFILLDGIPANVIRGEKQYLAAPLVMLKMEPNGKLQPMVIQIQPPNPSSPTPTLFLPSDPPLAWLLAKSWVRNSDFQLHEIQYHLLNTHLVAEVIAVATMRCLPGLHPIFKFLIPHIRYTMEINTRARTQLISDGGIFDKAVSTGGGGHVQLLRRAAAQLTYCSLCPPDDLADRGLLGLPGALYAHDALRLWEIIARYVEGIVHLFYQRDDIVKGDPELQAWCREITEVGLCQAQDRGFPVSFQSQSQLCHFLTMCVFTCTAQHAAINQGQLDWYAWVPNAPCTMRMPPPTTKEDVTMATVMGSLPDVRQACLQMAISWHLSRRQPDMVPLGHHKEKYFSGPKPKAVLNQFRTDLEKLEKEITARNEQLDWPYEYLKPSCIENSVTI
# Molecular target: Polyunsaturated fatty acid lipoxygenase ALOX12 (Homo sapiens) (UniProt P18054)
# Test: Primary qHTS assay for inhibitors of human arachidonate 12S-lipoxygenase (ALOX12): Round 2
# Details: purified 12hLO, xylenol orange hydroperoxide absorbance; series mostly up to 108 µM
# In short: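 Purified human 12hLO at 150 nM in 25 mM Hepes, 0.01% Triton X-100, pH 7.0, preincubated 15 min at room temperature with compound. Reaction started with 40 uM arachidonic acid, 30 min at room temperature. Hydroperoxide measured by Fe-xylenol orange, 573/405 nm absorbance ratio.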
# Potency is the fitted concentration of half-maximal effect.
row,SMILES,Potency
1,COc1ccc(-c2[nH]c(-c3ccc(F)cc3)nc2SCC(=O)NC2CCCC2)cc1,inactive
2,C=CCC1Cc2c(cccc2[N+](=O)[O-])C(CC=C)N1 (stereo not given),"inconclusive: 39.8 µM [inhibitor, partial curve, poor fit]"
3,O=C1c2c(O)cc(O)cc2O[C@H](c2ccc(O)c(O)c2)[C@H]1O,"inconclusive: 31.6 µM [inhibitor, partial curve, poor fit]"
4,C[C@@H]1CN([C@H](C)CO)C(=O)CCCn2cc(nn2)CO[C@H]1CN(C)S(=O)(=O)c1ccc(-c2ccccc2)cc1,"inconclusive: 89.1 µM [inhibitor, partial curve, poor fit]"
5,CC(=O)c1cc(C)c(OCc2cn(CC(=O)c3ccc(O)cc3)nn2)c(C)c1,"inconclusive: 0.141 µM [inhibitor, full curve, poor fit]"
6,N#Cc1nc(-c2ccc(F)cc2)oc1N1CCN(C(=O)c2ccco2)CC1,"inconclusive: 39.8 µM [inhibitor, single point]"
7,O=C(CN1CCN(c2ccc(F)cc2)CC1)NCc1cccs1,"inconclusive: 0.891 µM [inhibitor, full curve, poor fit]"
8,Cc1ccc(C2C=C(c3ccccc3OC(F)F)Nc3ncnn32)cc1 (stereo not given),"inconclusive: 56.2 µM [inhibitor, partial curve, poor fit] and inconclusive: 25.1 µM [inhibitor, partial curve, poor fit]"
9,CCOC(=O)c1[nH]c(=O)[nH]c1CSCCO,"inconclusive: 3.98 µM [inhibitor, full curve, poor fit]"
10,COc1ccc(C2C(C(=O)c3sc(C)nc3C)=C(O)C(=O)N2CCN(C)C)cc1OC (stereo not given),"inconclusive: 4.47 µM [inhibitor, full curve, poor fit]"
11,CC(=O)C1(O)CCC2C3CCC4CC(=O)CCC4(C)C3C(=O)CC21C (stereo not given),inactive
12,Cc1nc(C)c(/C(O)=C/c2nc3ccccc3oc2=O)s1,inactive
13,CCCN1CCN(c2ncnc3sc(C(=O)Nc4c(C)cc(C)cc4C)c(C)c23)CC1,"inconclusive: 126 µM [inhibitor, partial curve, poor fit]"
14,CCc1ccc2nc(Nc3ncc(C(C)=O)c(C)n3)nc(C)c2c1,"inconclusive: 89.1 µM [inhibitor, single point]"
15,CC(C)=CC1C(C(=O)Nc2c(C)cc(C)cc2C)C1(C)C (stereo not given),inactive
16,O=C(O)c1cccnc1SCC(F)(F)F,"inconclusive: 2.82 µM [inhibitor, full curve, poor fit]"
17,NC(=S)c1ccc(C(F)(F)F)cc1,"inconclusive: 44.7 µM [inhibitor, partial curve, poor fit]"
18,O=S(=O)(Nc1ccc(Cc2ccncc2)cc1)c1ccc(Cl)cc1,"inconclusive: 2.51 µM [inhibitor, full curve, poor fit]"
19,CCOC(=O)CNS(=O)(=O)c1cc(-c2nn(C)c(=O)c3ccccc23)ccc1C,"inconclusive: 7.94 µM [inhibitor, full curve, poor fit]"
20,Cc1ccc(S(=O)(=O)N2CCN(C(=O)C(C)Cn3nc(C)c(C)c3C)CC2)cc1C (stereo not given),"inconclusive: 89.1 µM [inhibitor, single point]"
21,Cc1cccc(NS(=O)(=O)c2ccc(C(=O)N3CC(C)OC(C)C3)cc2)c1C (stereo not given),"inconclusive: 63.1 µM [inhibitor, partial curve, poor fit]"
22,CCCCCCCCCC(=O)NN=C1CCCCCCCCCCC1,inactive

row,SMILES,Potency
1,COc1ccc(OC)c(NC(=O)Cn2ccc3cc(Cl)ccc32)c1,inactive
2,O=C(Nc1cccc(CNCCc2c[nH]c3ccccc23)c1)c1ccccc1Cl,"inconclusive: 22.4 µM [inhibitor, partial curve]"
3,CCC1CN(S(=O)(=O)c2cc(-c3onc(C)c3C)ccc2C)c2cc(Cl)ccc2O1 (stereo not given),"inconclusive: 50.1 µM [inhibitor, partial curve, poor fit]"
4,CCn1ccnc1CN(C)Cc1cn(-c2ccc(C)cc2)nc1-c1cccc(C)c1,inactive
5,O=C(Cc1c(Sc2ccccc2)c2ccccc2n1Cc1ccccc1)NCCO,inactive
6,CC(C)c1ccc(CCNC(=O)CCNS(=O)(=O)c2ccc(Br)cc2)cc1,"inconclusive: 126 µM [inhibitor, single point]"
7,CC(=O)Nc1sc(N/N=C\c2ccccc2F)nc1-c1cccs1,inactive
8,Cc1cc(=O)n(CC(=O)Nc2ccc(Cl)cc2F)c(N(C)Cc2ccccc2)n1,inactive
9,COc1ccc(-c2cc(C(=O)O)c3cc(C)cc(C)c3n2)c(OC)c1,inactive
10,CC(C)CNC(=O)c1ccc2c(c1)NC(C)(COCC1CC1)CO2 (stereo not given),"inconclusive: 89.1 µM [inhibitor, partial curve, poor fit]"
11,O=C(c1cccs1)N1CCC2(CC1)N=C(c1ccc(Cl)cc1)NO2,"inconclusive: 89.1 µM [inhibitor, single point]"
12,C=CCNC(=O)CCCCC(=O)NCC=C,"inconclusive: 141 µM [inhibitor, partial curve, poor fit]"
13,Cc1ccc2c(c1)C=C(C(=O)Nc1ccc3oc(=O)ccc3c1)C=CO2,inactive
14,O=C(Cn1nnc(-c2ccccc2)n1)N1CCC(c2nc3ccccc3s2)CC1,active: 39.8 µM
15,COc1cccc(N2CC(C(=O)Nc3nnc(SCC(=O)N4CCOCC4)s3)CC2=O)c1 (stereo not given),"inconclusive: 44.7 µM [inhibitor, partial curve, poor fit]"
16,O=C(CNS(=O)(=O)c1ccc(Br)cc1)N1CCN(c2ccc(F)cc2)CC1,"inconclusive: 44.7 µM [inhibitor, partial curve, poor fit]"
17,O=S(=O)(c1ccc(Cl)cc1)N1CCC(N2CCOCC2)CC1,"inconclusive: 0.891 µM [inhibitor, full curve]"
18,O=C(COC(=O)c1ccc2ccccc2c1)Nc1ncc(C(F)(F)F)cc1Cl,"inconclusive: 0.631 µM [inhibitor, partial curve, poor fit]"
19,Cc1ccc(NC(=O)CN(C)C(=O)c2nc(-c3ccccc3)oc2C)cc1,"inconclusive: 50.1 µM [inhibitor, partial curve, poor fit]"
20,COC(=O)CCCCCCCC(=O)Nc1nnc(C(F)(F)F)s1,"inconclusive: 0.794 µM [inhibitor, full curve]"
21,CCCCN(C)C(=O)C1CCN(C(=O)/C=C/c2c(Cl)cccc2Cl)CC1,inactive
22,Cc1csc(Nc2ccccc2)[n+]1C,inactive

row,SMILES,Potency
1,CCc1c(C(=O)NNC(=S)NC2CCCCC2)csc1C,"inconclusive: 44.7 µM [inhibitor, partial curve, poor fit]"
2,CC(=O)c1ccc(Nc2nc(C(N)COCc3ccccc3)cs2)cc1 (stereo not given),"inconclusive: 126 µM [inhibitor, single point]"
3,COc1cc2c(=O)n(CCC(=O)NCC3CCCO3)c(=O)n(CC(=O)Nc3ccc(C)cc3C)c2cc1OC (stereo not given),"inconclusive: 100 µM [inhibitor, partial curve, poor fit]"
4,Cc1nc(SCC(=O)c2cccc([N+](=O)[O-])c2)n[nH]1,"inconclusive: 50.1 µM [inhibitor, single point]"
5,CCOC(=O)Cn1cc(CN2CCS(=O)(=O)N(Cc3ccc(Cl)cc3)C(C(=O)OC)C2)nn1 (stereo not given),"inconclusive: 3.16 µM [inhibitor, full curve, poor fit]"
6,CCc1ccc(CNCc2c(C(=O)O)n(Cc3ccc(C)cc3)c3cc(C)ccc23)cc1,"inconclusive: 50.1 µM [inhibitor, partial curve, poor fit]"
7,O=C(CC1C(=O)NCCN1Cc1ccoc1)NCCCn1ncc2ccccc21 (stereo not given),"inconclusive: 0.224 µM [inhibitor, full curve, poor fit]"
8,O=C(N/N=C1\CCc2ccccc21)c1ccccc1O,inactive
9,Oc1ccc(-c2nc(-c3ccccc3)cs2)cc1,"inconclusive: 35.5 µM [inhibitor, partial curve]"
10,Cc1cc2nc(CSc3nc4ccc(NC(=O)C(C)(C)C)cc4s3)cc(=O)n2o1,inactive
11,CCCCCCC(=O)Nc1nc(C)c(-c2csc(Nc3cccc(OC)c3)n2)s1,"inconclusive: 39.8 µM [inhibitor, partial curve, poor fit]"
12,CCCn1c2ccc(F)cc2c2n[nH]c(=S)nc21,"inconclusive: 28.2 µM [inhibitor, partial curve, poor fit]"
13,Cc1[nH]n(-c2ccccc2)c(=O)c1C(=O)c1ccccc1,"inconclusive: 31.6 µM [inhibitor, partial curve, poor fit]"
14,CCN(CC)CC(=O)N1c2ccccc2Oc2c(c(=O)n(C)c(=O)n2C)C1c1cccc([N+](=O)[O-])c1 (stereo not given),"inconclusive: 100 µM [inhibitor, partial curve, poor fit]"
15,C1CNC(CN2CCOCC2)C1 (stereo not given),active: 8.91 µM
16,Cc1ccc(-c2csc(Nc3ccc(C(=O)O)cc3)[n+]2Cc2ccccc2)cc1,inactive
17,Cc1cc2oc(=O)cc(CN(C)Cc3cccs3)c2cc1C,inactive
18,Cc1ccc(CC(=O)N2CCC(c3n[nH]c(=O)n3Cc3ccc(F)cc3)CC2)cc1,"inconclusive: 22.4 µM [inhibitor, partial curve]"
19,CCCCC(c1nnnn1CC1CCCO1)N1CCN(c2cccc(C)c2C)CC1 (stereo not given),"inconclusive: 39.8 µM [inhibitor, partial curve, poor fit]"
20,C/C(=N\O)c1cccc(-n2cccc2)c1,"inconclusive: 35.5 µM [inhibitor, partial curve, poor fit]"
21,COc1ccccc1N1C(=O)CC(N2CCc3ccccc32)C1=O (stereo not given),"inconclusive: 39.8 µM [inhibitor, partial curve, poor fit]"

# 5 records picked at random from those above, as already listed:
row,SMILES,Potency
16,Cc1ccc(-c2csc(Nc3ccc(C(=O)O)cc3)[n+]2Cc2ccccc2)cc1,inactive
17,Cc1cc2oc(=O)cc(CN(C)Cc3cccs3)c2cc1C,inactive
8,O=C(N/N=C1\CCc2ccccc21)c1ccccc1O,inactive
2,CC(=O)c1ccc(Nc2nc(C(N)COCc3ccccc3)cs2)cc1 (stereo not given),"inconclusive: 126 µM [inhibitor, single point]"
13,Cc1[nH]n(-c2ccccc2)c(=O)c1C(=O)c1ccccc1,"inconclusive: 31.6 µM [inhibitor, partial curve, poor fit]"

# 2 entries from above, set out differently:
row | SMILES | Potency
20 | C/C(=N\O)c1cccc(-n2cccc2)c1 | inconclusive: 35.5 µM [inhibitor, partial curve, poor fit]
21 | COc1ccccc1N1C(=O)CC(N2CCc3ccccc32)C1=O (stereo not given) | inconclusive: 39.8 µM [inhibitor, partial curve, poor fit]
